In patent publication US20170029530A1:
These are yes or no findings as the source states them, for the method shown. Some results given as binding are weak or reduced against the parent protein; the word gives no strength.

The chains behind the UniProt entries cited, without tags or fusion partners. Where a name states a change or a piece, a line headed by the entry shows the natural chain unless it says otherwise. Residues count along the entry.
UniProt Q4R7M2, residues 36-463: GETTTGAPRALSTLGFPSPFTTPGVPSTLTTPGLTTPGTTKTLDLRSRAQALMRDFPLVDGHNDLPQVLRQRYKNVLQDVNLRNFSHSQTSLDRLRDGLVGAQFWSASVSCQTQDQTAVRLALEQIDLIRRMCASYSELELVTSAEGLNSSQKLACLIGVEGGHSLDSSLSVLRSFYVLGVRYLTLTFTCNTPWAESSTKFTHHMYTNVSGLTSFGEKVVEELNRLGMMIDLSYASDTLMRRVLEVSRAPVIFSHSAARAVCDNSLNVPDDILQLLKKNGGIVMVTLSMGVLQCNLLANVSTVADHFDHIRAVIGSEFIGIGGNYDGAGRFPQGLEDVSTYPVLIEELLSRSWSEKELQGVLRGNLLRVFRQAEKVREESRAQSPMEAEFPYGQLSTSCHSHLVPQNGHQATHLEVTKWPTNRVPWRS
UniProt Q5U2X4: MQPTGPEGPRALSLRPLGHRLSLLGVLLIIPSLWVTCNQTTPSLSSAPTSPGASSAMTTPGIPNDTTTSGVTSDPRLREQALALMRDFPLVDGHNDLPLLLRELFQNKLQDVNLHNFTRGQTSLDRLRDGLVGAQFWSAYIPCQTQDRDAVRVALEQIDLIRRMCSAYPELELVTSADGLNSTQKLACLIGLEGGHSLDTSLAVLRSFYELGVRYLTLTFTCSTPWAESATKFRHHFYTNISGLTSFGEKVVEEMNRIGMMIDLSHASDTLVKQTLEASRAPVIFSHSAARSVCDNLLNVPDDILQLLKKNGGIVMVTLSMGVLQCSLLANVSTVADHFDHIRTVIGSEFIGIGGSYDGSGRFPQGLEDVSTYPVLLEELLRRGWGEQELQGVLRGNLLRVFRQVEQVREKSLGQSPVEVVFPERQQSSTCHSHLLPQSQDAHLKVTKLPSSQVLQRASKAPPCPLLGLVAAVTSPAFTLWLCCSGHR
UniProt Q9H4A9: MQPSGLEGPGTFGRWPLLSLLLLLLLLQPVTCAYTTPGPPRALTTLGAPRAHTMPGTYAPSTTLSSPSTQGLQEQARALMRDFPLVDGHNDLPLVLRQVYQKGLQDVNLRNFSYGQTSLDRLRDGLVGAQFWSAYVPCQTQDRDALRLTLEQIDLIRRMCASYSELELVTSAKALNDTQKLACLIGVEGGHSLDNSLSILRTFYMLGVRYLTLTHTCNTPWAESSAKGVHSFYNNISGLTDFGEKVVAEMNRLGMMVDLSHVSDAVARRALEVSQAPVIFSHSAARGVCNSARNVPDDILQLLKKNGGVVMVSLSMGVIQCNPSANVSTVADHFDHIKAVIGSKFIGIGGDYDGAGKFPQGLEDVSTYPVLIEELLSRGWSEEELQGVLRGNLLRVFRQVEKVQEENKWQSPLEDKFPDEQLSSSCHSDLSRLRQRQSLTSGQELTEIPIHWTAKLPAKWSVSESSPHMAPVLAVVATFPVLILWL

Legend:
[1] = molecular target: cDPEP3 (Macaca fascicularis) (UniProt Q4R7M2); assay: ELISA, coated antigen, antibody 1 ug/mL
[2] = molecular target: rat DPEP3 ECD with histidine tag (rat) (UniProt Q5U2X4); assay: ELISA, coated antigen, antibody 1 ug/mL
mDPEP3 = molecular target: T1, mDPEP3; assay: ELISA, coated antigen, antibody 1 ug/mL
T1 sequence (single chain): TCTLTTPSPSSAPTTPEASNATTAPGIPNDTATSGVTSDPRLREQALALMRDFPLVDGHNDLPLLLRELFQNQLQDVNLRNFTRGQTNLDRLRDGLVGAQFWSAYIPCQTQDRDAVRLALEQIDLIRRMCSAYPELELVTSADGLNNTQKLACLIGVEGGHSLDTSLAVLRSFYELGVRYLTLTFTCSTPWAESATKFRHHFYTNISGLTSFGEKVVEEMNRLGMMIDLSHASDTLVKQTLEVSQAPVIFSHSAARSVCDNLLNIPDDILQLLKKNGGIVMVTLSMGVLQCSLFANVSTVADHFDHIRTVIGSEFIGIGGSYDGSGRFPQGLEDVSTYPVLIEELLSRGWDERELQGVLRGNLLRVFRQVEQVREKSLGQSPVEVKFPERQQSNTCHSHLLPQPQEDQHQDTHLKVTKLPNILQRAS

[3] = molecular target: hDPEP2 ECD with histidine tag (human) (UniProt Q9H4A9); assay: ELISA, coated antigen, antibody 1 ug/mL
[4] = molecular target: T2, human DPEP3 (hDPEP3) protein on the cell surface (human) (UniProt Q9H4B8); assay: flow cytometry, HEK-293T cells overexpressing hDPEP3
T2 sequence (chain, GPI anchor at the C-terminus after removal of the final 25 amino acids): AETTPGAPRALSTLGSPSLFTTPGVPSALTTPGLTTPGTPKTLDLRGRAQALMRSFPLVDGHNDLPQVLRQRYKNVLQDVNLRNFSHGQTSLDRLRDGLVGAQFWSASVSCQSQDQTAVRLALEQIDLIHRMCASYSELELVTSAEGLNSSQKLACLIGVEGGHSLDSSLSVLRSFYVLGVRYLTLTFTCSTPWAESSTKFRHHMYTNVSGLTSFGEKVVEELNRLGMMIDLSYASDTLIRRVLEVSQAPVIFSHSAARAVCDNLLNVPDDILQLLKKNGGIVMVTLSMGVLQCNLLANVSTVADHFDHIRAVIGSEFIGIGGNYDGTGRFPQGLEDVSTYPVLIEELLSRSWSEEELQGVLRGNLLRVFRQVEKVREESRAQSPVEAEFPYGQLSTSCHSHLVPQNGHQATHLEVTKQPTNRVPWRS

[5] = molecular target: T2, human DPEP3 (hDPEP3) protein on the cell surface (human); assay: immunohistochemistry on a tissue microarray of primary patient ovarian tumors
hDPEP3-ECD-His (human) = hDPEP3-ECD-His (human) (UniProt Q9H4B8); assay: IHC competition, antibody mixed with a 5x molar excess of hDPEP3-His before staining
[6] = molecular target: T2, human DPEP3 (hDPEP3) protein on the cell surface (human); assay: immunohistochemistry, tissue microarray of primary ovarian tumors, cellular H-score
[7] = molecular target: T2, human DPEP3 (hDPEP3) protein on the cell surface (human); assay: immunohistochemistry on FFPE pellets of DPEP3-expressing HEK-293T cells, antibody at 10 ug/ml

B1: SC34.4 (antibody, mouse IgG2b, V domains shown)
VH: QVQLQQSGAELARPGASVKLSCKASGYTFTSYGINWVKQRTGQGLEWIGEIYPGSGNIYYNEKFKGKAILTTDKSSNTAYMQLSSLTSEDSAVYFCARVHDYGSWFPYWAQGTLVTVSA
VL: DIVMSQSPSSLTVSVGEKVTMSCKSSQSLLYSRNQKNYLAWYQQKPGQSPKLLIYWASTRDSGVPDRFTGTGSGTDFSLTISSVKTEDLAVYYCHQHYRYPLTFGAGTKLELK
[1]
  binding: binds
[2]
  binding: binds

B2: SC34.83 (antibody, mouse IgG2a, V domains shown)
VH: QVQLQQSGAELVKPGASVKISCKASGYAFSHSWMNWVKQRPGKGLEWIGRIYPGDGDINYNGKFKGKATLTADKSSSTAYMQLSSLTSEDSAVYFCARRGPSYNNYCFDYWGQGTTLTVSS
VL: QIVLIQSPAIMSASPGENVTMTCSASSSVSYMHWYQQKSGTSPKRWIYDTSKLASGVPARFSGSGSGTSYSLTISSMEAEDAATYYCQQWNSYPPTFGAGTKLELK
[1]
  binding: binds
mDPEP3
  binding: binds
[2]
  binding: binds

B3: SC34.95 (antibody, mouse IgG1)
light chain: DIVLSQSPSSLAVSVGEKVTMSCKSSQSLLNSRDRKNYLAWCQQKPGQSPKVMIYWASTRESGVPDRFTGSGSGTDFTLTISSVKAEDLAVYYCQQYYSYPLTVGAGTKLELK
heavy chain: QVQVKQSGAELARPGASVKLSCKASGYTFTSYAINWLKQRTGQGLEWIGEIYPGSGNTYYNESFKNKATLTTDKSSTTAYMQLNSLTSEDSAVYFCARVHDYGSWFPYWGQGTLVTVSA
[1]
  binding: binds
[2]
  binding: binds

B4: SC34.14 (antibody, mouse IgG1, V domains shown)
VH: EVQLQQSGPEMVKPGASVKISCKASGYIFTDYYMHWVKQSHGESLDWIGRVNPKKGGTTYNQKFEGKAILTVDKSSSTAYMDLNSLTSEDSAVYYCAMGIYYSYDASFDYWGQGTTLTVSS
VL: DIQMTQAPASLSPSVGATVTITCRTSEHIYSYLAWYQQKQGKSPRLLVYNAKTLAEGVSSRFSGSGSGTQFSLQINSLQPEDFGNYYCQHHYDTPYTFGGGTKLEIK
[3]
  binding: binds
[4]
  binding: binds

B5: SC34.48 (antibody, mouse IgG1, V domains shown)
VH: EVQLQQSGLEMVKPGASVKISCKASGYIFTDYYMHWVKQSHGKSLDWIGRVNPKKGGTTYNQKFEGKATLTVDKSSSTAYMDLNSLTSEDSAVYYCAMGIYFSYDASFDYWGQGTTLTVSS
VL: DIQMTQAPASLSASVGETVTITCRTSGHIYSYLAWYQQKQGKSPQLLVYNAKTLAEGVSSRFSGSGSGTQFSLKITSLQPEDFGDYYCQHHYDTPYTFGGGTKLEIK
[3]
  binding: binds
[4]
  binding: binds

B6: SC34.58 mouse anti-DPEP3 antibody (antibody, V domains shown)
VH: QVQLQQSGAELARPGASVKLSCKASGYTFTSYGVNWVKQRTGQGLEWIGEIYPGRGDVYYNDNFKGKATLTTDKSSSTAYMQLSSLTSEDSAVYFCARVHDYGSWFPYWGQGTLVTVSA
VL: DIVMSQSPSSLAVSVGEKVTMSCKSSQSLLYSRNQKNYLAWYQQKPGQSPKLLIYWASTRESGVPDRFTGSGSGTDFTLTISSVKAEDLAVYYCHQHYRYPLTFGAGTKLELR
[1]
  binding: binds
[4]
  binding: binds
[5]
  binding: binds
hDPEP3-ECD-His (human)
  binding: binds
[6]
  binding: binds
[7]
  binding: binds

B7: SC34.46 (antibody, mouse IgG1, V domains shown)
VH: QVQLQQSGTELARPGTSVKLSCKASGYTFRSYAISWVRQRTGQGLEWIGEIYPGSDKTYYNESLKGKVTLTTDKCSSTANMQLTSLTSEDSAVYFCARVHDYGSWFPYWGQGTLVTVSA
VL: DIVMSQSPSSLAVSVGEKVTMSCKSSQSLLYSKYQKNFLAWYQQKPGQSPKLLIYWASTRESGVPDRFTGSGSGTDFTLTISNVKAEDLAVYYCQQYYRYPLTFGAGTTLELK
[1]
  binding: binds
mDPEP3
  binding: binds
[2]
  binding: binds
